{"source": "PubChem BioAssay AID504793 – Drosophila RNAi Screening Center | 2011", "screen": "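Knock-downs allowing continued mitosis even though DNA is damaged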 (primary screen)", "cells": "Drosophila S2R+ cells", "reagent": "long dsRNA against Drosophila genes, about 0.25 µg dsRNA per well", "timing": "4 days of dsRNA, then 4 hours of drug before read-out", "challenge": "doxorubicin 0.5 µM for 4 hours to cause double-strand breaks, in cells also given a low, harmless dose of dsRNA against nbs to sensitise the assay", "detection": "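Mitotic index as the number of phospho-histone H3-positive cells in each well following doxorubicin, given as raw counts without normalisation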", "direction": "mitotic cells: higher = more cells in mitosis, weaker G2 arrest", "active means": "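a call needs confirmation in secondary tests, with other dsRNAs and a check of mitotic timing without damage, not just a high primary count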", "calls": "active = confirmed in follow-up tests; inactive = not confirmed", "note": "The deposit covers about 23,000 reagents; this is a random part of those that have a named target and a result. In the full data, 62 (0.27%) are marked active. 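Calls come from follow-up tests whose scores are not deposited, so confirmed genes may have low counts here; counts are not normalised per plate.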 The raw values are shown without normalisation. Names joined by + are all predicted targets of the reagent."}
{"gene": "CG30105", "amplicon": "DRSC05668", "mitotic cells, replicate 1": 3, "activity call": "inactive"}
{"gene": "CG30105", "amplicon": "DRSC29034", "mitotic cells, replicate 1": 4, "activity call": "inactive"}
{"gene": "RpL34b (Ribosomal protein L34b)", "amplicon": "DRSC16475", "mitotic cells, replicate 1": 5, "activity call": "inactive"}
{"gene": "CG1161", "amplicon": "DRSC24956", "mitotic cells, replicate 1": 10, "activity call": "inactive"}
{"gene": "CG32606 (retired record)", "amplicon": "DRSC19001", "mitotic cells, replicate 1": 11, "activity call": "inactive"}
{"gene": "CG32606 (retired record)", "amplicon": "DRSC19371", "mitotic cells, replicate 1": 8, "activity call": "inactive"}
{"gene": "CG32606 (retired record)", "amplicon": "DRSC19372", "mitotic cells, replicate 1": 6, "activity call": "inactive"}
{"gene": "CG32606 (retired record)", "amplicon": "DRSC23035", "mitotic cells, replicate 1": 11, "activity call": "inactive"}
{"gene": "CG32606 (retired record)", "amplicon": "DRSC25810", "mitotic cells, replicate 1": 4, "activity call": "inactive"}
{"gene": "CG32606 (retired record)", "amplicon": "DRSC26998", "mitotic cells, replicate 1": 7, "activity call": "inactive"}
{"gene": "CG13511", "amplicon": "DRSC04153", "mitotic cells, replicate 1": 6, "activity call": "inactive"}
{"gene": "CG13511", "amplicon": "DRSC29026", "mitotic cells, replicate 1": 4, "activity call": "inactive"}
{"gene": "CG30275", "amplicon": "DRSC04163", "mitotic cells, replicate 1": 8, "activity call": "inactive"}
{"gene": "twe (twine)", "amplicon": "DRSC03628", "mitotic cells, replicate 1": 1, "activity call": "inactive"}
{"gene": "twe (twine)", "amplicon": "DRSC27109", "mitotic cells, replicate 1": 5, "activity call": "inactive"}
{"gene": "mGluR (metabotropic Glutamate Receptor)", "amplicon": "DRSC17215", "mitotic cells, replicate 1": 12, "activity call": "inactive"}
{"gene": "CG13339", "amplicon": "DRSC06373", "mitotic cells, replicate 1": 9, "activity call": "inactive"}
{"gene": "dsx-c73A (doublesex cognate 73A)", "amplicon": "DRSC09435", "mitotic cells, replicate 1": 9, "activity call": "inactive"}
{"gene": "dsx-c73A (doublesex cognate 73A)", "amplicon": "DRSC09914", "mitotic cells, replicate 1": 5, "activity call": "inactive"}
{"gene": "dsx-c73A (doublesex cognate 73A)", "amplicon": "DRSC10429", "mitotic cells, replicate 1": 3, "activity call": "inactive"}
{"gene": "CG17186", "amplicon": "DRSC15180", "mitotic cells, replicate 1": 7, "activity call": "inactive"}
{"gene": "CG17186", "amplicon": "DRSC27612", "mitotic cells, replicate 1": 17, "activity call": "inactive"}

As entered above:
Entry of CG32606 (retired record) [DRSC19371] under “mitotic cells, replicate 1”: 8
Value for dsx-c73A (doublesex cognate 73A) [DRSC10429] under “activity call”: inactive
CG13339 [DRSC06373], mitotic cells, replicate 1 = 9
For “activity call”, CG32606 (retired record) [DRSC25810] has inactive

The list goes on.
{"gene": "CG15756", "amplicon": "DRSC19721", "mitotic cells, replicate 1": 17, "activity call": "inactive"}
{"gene": "CG15756", "amplicon": "DRSC24288", "mitotic cells, replicate 1": 7, "activity call": "inactive"}
{"gene": "CG14990", "amplicon": "DRSC08449", "mitotic cells, replicate 1": 6, "activity call": "inactive"}
{"gene": "CG12963", "amplicon": "DRSC06265", "mitotic cells, replicate 1": 3, "activity call": "inactive"}
{"gene": "ENGase (Endo-beta-N-acetylglucosaminidase)", "amplicon": "DRSC19952", "mitotic cells, replicate 1": 16, "activity call": "inactive"}
{"gene": "ENGase (Endo-beta-N-acetylglucosaminidase)", "amplicon": "DRSC19953", "mitotic cells, replicate 1": 7, "activity call": "inactive"}
{"gene": "att-ORFB + DPCoAC", "amplicon": "DRSC15556", "mitotic cells, replicate 1": 8, "activity call": "inactive"}
{"gene": "CG9270", "amplicon": "DRSC03182", "mitotic cells, replicate 1": 3, "activity call": "inactive"}
{"gene": "mei-P26 (meiotic P26)", "amplicon": "DRSC23049", "mitotic cells, replicate 1": 6, "activity call": "inactive"}
{"gene": "Cog6 (Component of oligomeric golgi complex 6)", "amplicon": "DRSC06806", "mitotic cells, replicate 1": 8, "activity call": "inactive"}
{"gene": "Cog6 (Component of oligomeric golgi complex 6)", "amplicon": "DRSC29566", "mitotic cells, replicate 1": 10, "activity call": "inactive"}
{"gene": "ATPCL (ATP citrate lyase)", "amplicon": "DRSC05913", "mitotic cells, replicate 1": 10, "activity call": "inactive"}
{"gene": "ATPCL (ATP citrate lyase)", "amplicon": "DRSC27809", "mitotic cells, replicate 1": 3, "activity call": "inactive"}
